Laboratory results reported in paper PMC4275181.
These are yes or no findings as the source states them, for the method shown.

Target: CYT-18 CTD (isolated C-terminal anticodon-binding domain of the N. crassa mtTyrRS) (Neurospora crassa) (UniProt P12063)
Assay: SAXS; molecular weight from forward scattering I(0) against a bovine serum albumin standard; free protein at at least three concentrations in 100 mM KCl, 5 mM MgCl2, 10 mM Tris-HCl (pH 7.5), 5% glycerol; both purified

B1: CYT-18 CTD (isolated C-terminal anticodon-binding domain of the N. crassa mtTyrRS) (domain or fragment, UniProt P12063 448-583)
chain: GTLNNAPRIDMILPESLIMGKSIGRILYAAGLASSTTEGHKLAAAQGCYVGGAHRAGGENVTMNPDLISFMPVKLWFPGETQRYLINGNLLILRKGKHNVRVIQMVSDVEYAASGQTYPGQSFTGAVRKLNEIMKNL
  binding: no binding
